From US10376520B2, “Methods for the treatment of cardiovascular disorders” (Galapagos NV, priority 2015, dated 2019)
The source gives many values for each of these; only a part stands here.

How the values were obtained:
RA patients [1] = experiment: [HDL] determination, Study 1 (RA patients, add-on to MTX); type: in vivo, human
Experimental: Double-blind, placebo-controlled add on study in subjects with moderately to severely active RA who have an inadequate response to methotrexate (MTX) (oral or parenteral).
595 subjects randomized to one of 6 dose regimens of Compound 1 (dosed as a [Compound 1:HCl:3H2O]) (3 dose levels administered either once or twice daily) or placebo on top of each subject's stable dose of MTX.
Compound 1 (dosed as a [Compound 1:HCl:3H2O]) is dosed for twelve weeks once daily (q.d.) (50 mg, 100 mg or 200 mg) or twice daily (b.i.d.) (25 mg, 50 mg or 100 mg); or placebo.
At Week 12, the subjects on placebo who have not achieved 20% improvement in swollen joint count (SJC66) and tender joint count (TJC68) are re-randomized automatically to receive Compound 1 (dosed as a [Compound 1:HCl:3H2O]) either at 100 mg q.d. or 50 mg b.i.d. doses in a blinded fashion; subjects on 50 mg q.d. who have not achieved 20% improvement in SJC66 and TJC68 will be assigned to 100 mg q.d. and subjects on 25 mg b.i.d. that have not achieved a 20% improvement in SJC66 and TJC68 will be assigned to 50 mg b.i.d. Subjects who switch treatment at week 12 are handled as if they discontinued at week 12 for the purpose of statistical analysis, whereas subjects in the other groups will maintain their randomized treatment until Week 24.
This assay relies on a homogeneous enzymatic colorimetric test. In the presence of magnesium ions, dextran sulfate selectively forms water-soluble complexes with LDL, VLDL and chylomicrons which are resistant to PEG-modified enzymes.
The cholesterol concentration of [HDL]-cholesterol is determined enzymatically by cholesterol esterase and cholesterol oxidase coupled with PEG to the amino groups (approx. 40%).
In the presence of peroxidase, the hydrogen peroxide generated reacts with 4-amino-antipyrine and Sodium N-(2-hydroxy-3-sulfopropyl)-3,5-dimethoxyaniline (HSDA) to form a purple-blue dye. The color intensity of this dye is directly proportional to the cholesterol concentration and is measured photometrically.
Human serum and plasma samples [HDL] determination was done on a Roche/Hitachi Cobas c 701/702 system which automatically calculate the analyte concentration of each sample. Samples containing precipitates are centrifuged before performing the assay.

RA patients [2] = experiment: LDL determination, Study 2 (RA patients, monotherapy); type: in vivo, human; details: 50 mg q.d. non responders switching to 100 mg q.d. at week 12
Source text: Randomized, double-blind, placebo-controlled, multicenter, phase IIb dose finding study of Compound 1 (dosed as a [Compound 1:HCl:3H2O]) administered for 24 weeks as monotherapy to subjects with moderately to severely active rheumatoid arthritis who have an inadequate response to methotrexate alone
Double-blind, placebo-controlled, monotherapy study in subjects with moderately to severely active RA who have an inadequate response to methotrexate (MTX) (oral or parenteral).
280 subjects randomized to one of 3 doses of Compound 1 (dosed as a [Compound 1:HCl:3H2O]) or to placebo, given once daily (q.d.).
Twelve weeks of treatment with Compound 1 (dosed as a [Compound 1:HCl:3H2O]) at 50 mg, 100 mg, or 200 mg q.d.; or placebo. At Week 12, all subjects on placebo and the subjects on the 50 mg dose who have not achieved 20% improvement in swollen joint count (SJC66) and tender joint count (TJC68) will be assigned to 100 mg q.d. in a blinded fashion and will continue treatment until Week 24. Subjects in the other groups will maintain their randomized treatment until Week 24.
The determination of [LDL]-cholesterol is made using an automated method taking advantage of the selective micellary solubilization of [LDL]-cholesterol by a nonionic detergent and the interaction of a sugar compound and lipoproteins (VLDL and chylomicrons).
When a detergent is included in the enzymatic method for cholesterol determination (cholesterol esterase, cholesterol oxidase coupling reaction), the relative reactivities of cholesterol in the lipoprotein fractions increase in this order: [HDL]<chylomicrons <VLDL <[LDL]. In the presence of Mg^2+, a sugar compound markedly reduces the enzymatic reaction of the cholesterol measurement in VLDL and chylomicrons. The combination of a sugar compound with detergent enables the selective determination of [LDL]-cholesterol in serum. (Friedewald et al., 1972; Rifai et al., 1992)
Homogeneous enzymatic colorimetric assay. […]
The color intensity of this dye is directly proportional to the cholesterol concentration and is measured photometrically. […]

[3] = from 25 mg b.i.d. to 50 mg b.i.d at 12 weeks (N = 17), week 16
[4] = from 25 mg b.i.d. to 50 mg b.i.d at 12 weeks (N = 17), week 20
[5] = placebo switched to 100 mg q.d. at week 12 (N = 15), week 16
[6] = placebo switched to 100 mg q.d. at week 12 (N = 15), week 20
[7] = placebo switched to 100 mg q.d. at week 12 (N = 15), week 24

Structure (SMILES): O=C(Nc1nc2cccc(-c3ccc(CN4CCS(=O)(=O)CC4)cc3)n2n1)C1CC1 [Compound 1, cyclopropanecarboxylic acid {5-[4-(1,1-dioxo-thiomorpholin-4-ylmethyl)-phenyl]-[1,2,4]triazolo[1,5-a]pyridin-2yl}-amide]
- [HDL] Mean CFB - 24 weeks results (RA patients [1]; [3]): 0.05 mmol/L
- [HDL] Median CFB - 24 weeks results (RA patients [1]; [3]): 0.15 mmol/L
- [HDL] Mean CFB - 24 weeks results (RA patients [1]; [4]): -0.02 mmol/L
- [HDL] Median CFB - 24 weeks results (RA patients [1]; [4]): -0.02 mmol/L
- [HDL] Mean CFB - 24 weeks results (RA patients [1]; [5]): -0.06 mmol/L
- [HDL] Median CFB - 24 weeks results (RA patients [1]; [5]): 0.00 mmol/L
- [HDL] Mean CFB - 24 weeks results (RA patients [1]; [6]): -0.04 mmol/L
- [HDL] Median CFB - 24 weeks results (RA patients [1]; [6]): -0.09 mmol/L
- [HDL] Mean CFB - 24 weeks results (RA patients [1]; [7]): -0.03 mmol/L
- [HDL] Median CFB - 24 weeks results (RA patients [1]; [7]): -0.08 mmol/L
- [LDL] Mean percentage CFB - 24 weeks results (RA patients [2]; week 16): 6.76%
- [LDL] Mean percentage CFB - 24 weeks results (RA patients [2]; week 20): 3.33%
- [LDL] Mean percentage CFB - 24 weeks results (RA patients [2]; week 24): 3.17%
